In the supplement of paper PMC9578143, “Small-Molecule Ebselen Binds to YTHDF Proteins Interfering with the Recognition of N^6-Methyladenosine-Modified RNAs” (ACS Pharmacology & Translational Science, 2022):
This is one part of the list. Baselines shift from plate to plate; read single values as rough.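 Hits were defined as a z-score below −3.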

These compounds were tested against T1, YTHDF1 YTH domain (aa 365-554) (UniProt Q9BYJ9) (assay: tryptophan fluorescence intensity z-score (mean); higher = higher fluorescence, less quenching (negative = binding / quenching)). Conditions: 10 µM.
T1 sequence (whole entry): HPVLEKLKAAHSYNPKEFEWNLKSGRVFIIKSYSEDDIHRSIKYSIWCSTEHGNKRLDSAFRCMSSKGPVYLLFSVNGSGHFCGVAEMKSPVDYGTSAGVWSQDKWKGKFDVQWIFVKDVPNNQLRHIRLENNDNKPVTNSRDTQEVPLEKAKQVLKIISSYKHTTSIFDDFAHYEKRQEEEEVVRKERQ

Tryptophan fluorescence intensity z-score, inactive:
CCCCCCCCCCCCCCCC(=O)OC[C@@H](NC(=O)C(Cl)Cl)[C@H](O)c1ccc([N+](=O)[O-])cc1 (plate: M 1-2) 0.531, COc1cc2nc(N(C)CCCNC(=O)C3CCCO3)nc(N)c2cc1OC (centres undefined) (plate: M 9-10) -0.854, O=C(O)/C=C/c1ccc(O)c(O)c1 (plate: M 19-20) -0.815, CC(=O)O[C@]1(C(C)=O)CC[C@H]2[C@@H]3C=C(Cl)C4=CC(=O)[C@@H]5C[C@@H]5[C@]4(C)[C@H]3CC[C@@]21C (plate: M 1-2) -0.407, Clc1ccc(CO/N=C(\Cn2ccnc2)c2ccc(Cl)cc2Cl)c(Cl)c1 (plate: M 9-10) -0.442, C#C[C@]1(OC(C)=O)CC[C@H]2[C@@H]3CCC4=CC(=NO)CC[C@@H]4[C@H]3CC[C@@]21CC (mixture of isomers) (plate: M 11-12) -0.142, COc1ccc2cc([C@H](C)CO)ccc2c1 (plate: M 9-10) -0.189, O=C(O)COCCN1CCN(C(c2ccccc2)c2ccc(Cl)cc2)CC1 (centres undefined) (plate: M 11-12) -0.359, N[C@@H]1CONC1=O (plate: M 1-2) 0.365, CC1=C(C(=O)O)N2C(=O)[C@@H](NC(=O)[C@H](N)C3=CCC=CC3)[C@H]2SC1 (plate: M 1-2) 0.249, N[C@@H](CCC(=O)N[C@@H](CS)C(=O)NCC(=O)O)C(=O)O (plate: M 19-20) 0.9, COc1cc(C(=O)NCCCCCC(=O)O)cc(OC)c1OC (plate: M 11-12) 0.0942, Cc1ncc(CO)c(CO)c1O (plate: M 11-12) 0.443, COc1cc2c3cc1Oc1cc(ccc1O)C[C@@H]1c4c(cc(OC)c(O)c4Oc4ccc(cc4)C[C@@H]3N(C)CC2)CC[N+]1(C)C (plate: M 5-6) 0.0207, N=C(N)NS(=O)(=O)c1ccc(N)cc1 (plate: M 7-8) 0.41, CC(=O)Oc1ccccc1C(=O)O (plate: M 1-2) -0.289, CC1=C(/C=C/C(C)=C/C=C/C(C)=C/C(=O)O)C(C)(C)CCC1 (plate: M 7-8) 0.223, CC(=O)O[C@@H]1CC2C(C)(C)[C@H](O)C=C[C@]2(C)C2CC[C@@]3(C)[C@H](c4ccoc4)OC(=O)C4OC43[C@@]21C (some centres undefined) (plate: M 17-18) 0.166, C=CCCCCCCCCCCCc1ccco1 (plate: M 21-22) 0.0342, CN(C)CCOC(c1ccccc1)c1ccccc1 (plate: M 3-4) -0.0311, CN(C)CC/C=C1/c2ccccc2Sc2ccc(Cl)cc21 (plate: M 7-8) -0.0324, CC(=O)O[C@H]1C[C@@H](OC(C)=O)C(C)(C)[C@@H]2C[C@@H](OC(C)=O)[C@]3(C)[C@H](CC[C@@]4(C)[C@H](c5ccoc5)OC(=O)[C@H]5O[C@@]534)[C@@]12C (plate: M 13-14) 0.374, CC(=O)[C@H]1CC[C@H]2[C@@H]3CCC4=CC(=O)CC[C@]4(C)[C@H]3CC[C@]12C (plate: M 5-6) -0.539, CCCN(CCC)S(=O)(=O)c1ccc(C(=O)O)cc1 (plate: M 5-6) 0.169, CO/N=C(\C(=O)NC1C(=O)N2C(C(=O)O)=C(CSc3nc(=O)c(=O)[nH]n3C)CS[C@H]12)c1csc(N)n1 (some centres undefined) (plate: M 7-8) -0.202, CCN(CC)C(=O)c1cccc(C)c1 (plate: M 13-14) 0.179, C[C@]12CC[C@@H]3c4ccc(O)cc4CC[C@H]3[C@@H]1CC[C@@H]2O (plate: M 3-4) 0.684, COc1ccc(-c2coc3c(O)c(OC)ccc3c2=O)cc1 (plate: M 15-16) 0.151, CN(C)CCN(Cc1ccccc1)c1ccccn1 (plate: M 5-6) 0.281, C=CC1=C(C)c2cc3[nH]c(cc4nc(cc5[nH]c(cc1n2)c(C)c5CCC(=O)O)C(CCC(=O)O)=C4C)c(C)c3C=C (plate: M 17-18) -0.0461, COc1ccc2c(c1)OCC(Cc1ccc(O)c(OC)c1)C2=O (centres undefined) (plate: M 15-16) -0.0385, C[n+]1cc2c3c(ccc2c2ccc4cc5c(cc4c21)OCO5)OCO3 (plate: M 1-2) 0.193, Clc1ccc(CSC(Cn2ccnc2)c2ccc(Cl)cc2Cl)cc1 (centres undefined) (plate: M 7-8) -0.675, Nc1ncnc2c1ncn2[C@@H]1O[C@H](CO)[C@@H](O)[C@H]1O (plate: M 1-2) 0.0438, Cc1cc(=O)oc2cc(O)c(O)cc12 (plate: M 17-18) 0.0567, N[C@@H](Cc1cc(I)c(Oc2cc(I)c(O)c(I)c2)c(I)c1)C(=O)O (plate: M 5-6) -0.288, COc1cc(O)c(C(C)=O)c(O)c1 (plate: M 19-20) 0.109, CNCc1ccccc1 (plate: M 21-22) 0.403, O=C(O)CCCCCCCCCCCC[C@@H]1C=CCC1 (plate: M 17-18) -0.237, COc1cc(OC)c2c(=O)c(O)c(-c3ccc(OC)c(OC)c3)oc2c1 (plate: M 17-18) 0.0921, COc1cccc2c1C(=O)c1c(O)c3c(c(O)c1C2=O)C[C@@](O)(C(=O)CO)C[C@@H]3O[C@H]1C[C@H](N)[C@H](O)[C@H](C)O1 (plate: M 11-12) -1.12, CC1(C)S[C@@H]2[C@H](NC(=O)[C@H](N)c3ccc(O)cc3)C(=O)N2[C@H]1C(=O)O (plate: M 1-2) -0.112, OCCOCCN1CCN(C2=Nc3ccccc3Sc3ccccc32)CC1 (plate: M 9-10) -0.171, Cc1cc(O)c(C)c(O)c1C(=O)O (plate: M 15-16) 0.322
